# “And” between values parts separate entries of the source, which are not always exact repeats. Identical values can stand only once. Out of some 210,000 compounds screened, about 5,900 (2.8%) were called active. Another 5% or so got no clear call; they are omitted. The call rests on the fitted dose curve; in most records, active means well fitted activation curve with a large enough effect; inconclusive means small, poorly fitted or top-dose-only effect; inactive means no such curve, though single readings can be large or run the other way. This is a selection; strong and weak results do not stand in their true shares. The source gives no active or inactive call for entries shown without one.
# Assay: qHTS Assay for Enhancers of SMN2 Splice Variant Expression; further: nearly all actives have a fitted effect of over 55% in size; on activity change, positive = activation: % of control where 0% means no effect
# Conditions: HEK293 SMN2-luciferase splicing reporter, luminescence, 30-36 h; activity change, positive = activation: at 46.1 µM (top of the series) unless noted
# In short: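 HEK293 cells carry an SMN2 […]–luciferase reporter in which exon 7 inclusion puts luciferase in frame. Cells were plated 10-12 h before compound addition, then incubated 30-36 h at 37C. ONE-Glo luminescence was read; sodium butyrate at 4.5 mM final served as control.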
# Potency means the concentration at half of the fitted maximal effect.
Compound,"activity change, positive = activation",Potency
CCOC(=O)c1sc2nc(CC(=O)OC)nc(NCc3ccc(F)cc3)c2c1C,inactive: -56.7%,
COc1ccc(NC(=O)c2ccco2)cc1NC(=O)c1cccc(C)c1OC,inactive: -31.3%,
NN1C(=O)NC(c2ccccc2)(c2ccccc2)C1=O,-33.1%,
c1ccc(-c2csc(NC3=NCCCCC3)n2)cc1,,active: 11.2 µM
C=CCNC(=S)Nc1cc(C)ccn1,-47%,
Cc1sc2nc(CN(C(=O)c3cccs3)C3CCCC3)[nH]c(=O)c2c1C,inactive: -39.6%,
O=C(Nc1ccc(F)cc1F)N1CCN(c2ccc(Cl)c(Cl)c2)CC1,163%,
CCC(C)NC(=O)c1ccc(N2CCC3(CC2)OCCO3)c([N+](=O)[O-])c1 (stereo not given),31.1% [at 1.84 µM],
CC(C)(C)NC(=O)CSc1nnc(-c2ccco2)n1Cc1ccco1,19.6%,
C/C(=N\O)c1sc(-c2ccccc2)nc1C,,active: 15.8 µM
Cc1nn(-c2nnc(NCc3ccccc3)nn2)c(C)c1Br,79%,
CCOCCCN(CCC#N)S(=O)(=O)c1ccc(S(=O)(=O)N2CCCC2)cc1,-36%,
COc1cccc(NC(=S)NCc2ccc3c(c2)cc(C)n3C)c1,36.5%,
Cc1ccc(C(=O)Nc2ncc(C)s2)o1,,active: 12.6 µM
COC(=O)c1nc2n(n1)C(c1ccc(OC)c(OC)c1OC)C1=C(CCCC1=O)N2 (stereo not given),36.2%,
S=C(Nc1ccc(Nc2ccccc2)cc1)NC1CCCCCC1,inactive: -32.9%,
Cc1cc(S(=O)(=O)Nc2ccc3oc4c(c3c2)CCCC4)ccc1Cl,inactive: -39%,
CCOc1ccccc1C(=O)NC(C(=O)Nc1cccc(S(N)(=O)=O)c1)C(C)C (stereo not given),inactive: -25.4%,
Cc1ccc(C)c(N2CCN(C(=O)c3ccc(Cn4c(=S)[nH]c5ccc(N6CCOCC6)cc5c4=O)cc3)CC2)c1,36.8%,
Cc1ccc(F)cc1S(=O)(=O)N1CCC(c2nc3ccccc3s2)CC1,32.2%,
Cc1c(C(=O)O)cccc1-c1ccc(/C=N/Nc2ccc(Br)cc2)o1,36%,
O=C(Nc1ccccc1C(F)(F)F)c1cc2ncc(CCCl)cn2n1,36.9%,

Compound,"activity change, positive = activation",Potency
O=C(Nc1cccc(-c2nc3ccccc3o2)c1)c1cccnc1,inactive: -35.4%,
CCCCCCOc1ccc(C(=O)n2cnc(N)n2)cc1,44.8%,
Cc1ccc2nc(/C(C#N)=C/c3ccc(-c4ccc(C(=O)OC(C)C)cc4)o3)[nH]c2c1,,active: 11.2 µM
CCc1c(C)sc(NC(=O)Cn2nc(C(F)(F)F)c3c2CCCC3)c1C#N,inactive: -41.9%,
CC1(C)C(=O)OC(c2c(F)c(F)c(F)c(F)c2F)C2(CCCCC2)C1=O (stereo not given),35.8%,
Cc1c(NC(=S)N/N=C/C=C/c2ccc([N+](=O)[O-])cc2)c(=O)n(-c2ccccc2)n1C,2.15%,
C/C(=N\N1CCN(c2ccc(Cl)cc2)CC1)c1ccco1,-30.4%,
CC(C)Oc1ccccc1/C=N/Nc1ccccc1[N+](=O)[O-],inactive: -31.1%,
CCOc1ccc(NC(=O)Nc2cccc(C(=O)O)c2)cc1,,active: 2 µM
O=C1NC(=O)/C(=C/c2ccc(O)cc2)S1,58.9%,
O=C(/C=C/c1ccc(O)c(O)c1)OCCc1ccccc1,,active: 15.8 µM and active: 17.8 µM
Cc1cc(C(=O)COC(=O)Cc2n[nH]c(=O)c3ccccc23)c(C)n1-c1cccc(C(F)(F)F)c1,inactive: -69.5%,
COc1cc(CNc2nc(C)c([N+](=O)[O-])c(C)c2C#N)cc(OC)c1,-32.3%,
Fc1ccc(-c2cnn3c(-c4ccncc4)ccnc23)cc1,,active: 4.47 µM
CC(C)/C=C1\CC/C(=C\c2cccnc2)C1=O,inactive: -34.2%,
Cc1ccccc1C(=O)Oc1ccc(Sc2ccc(O)cc2)cc1,36%,
Nc1nc(=S)c2[nH]cnc2[nH]1,inactive: -43%,
COC(=O)/C(=C\c1cc(OC)c(OC)c(OC)c1)c1nc2ccccc2[nH]1,inactive: -99.2%,
Cc1ccc(NS(=O)(=O)c2ccc(NC(=O)C3CCCO3)cc2)cc1 (stereo not given),-67.6%,
O=C(CCN1CCN(c2ccccc2)CC1)Nc1ccccc1F,33.4%,
CC(C)C[C@H](N)c1nnc(S(=O)(=O)Cc2ccc(F)cc2)o1,-59%,
Cc1nc(N/N=C/c2ccccn2)sc1C,-62.5%,

Compound,"activity change, positive = activation",Potency
CC(C)(C)C(=O)c1cnc(Nc2ccccc2Cl)s1,,active: 12.6 µM
O=C1NC(=S)S/C1=C\c1ccc(SCc2ccco2)o1,-33%,
CCOC(=O)c1c(NC(=O)c2ccccc2C)sc2c1CC(C)(C)OC2,-36.5%,
COc1ccccc1C1N(c2ccc(Cl)cc2)C(=O)C2CCCN21 (stereo not given),103%,
C[n+]1c2n(c3ccccc31)N=C(c1ccccc1)CS2,inactive: -70.8%,
Cc1cccc(NC(=S)N2CCN(C(=O)C3CCCO3)CC2)c1 (stereo not given),16%,
O=C(O)C(=O)/C(=C\c1ccccc1)c1ccc2ccccc2n1,81.2%,
Cc1cc(O)c(/C=N/Nc2ccc(F)cc2)c(=O)o1,inactive: -36.4%,
CC(C)CCN1CC(C(=O)NCc2ccc(F)cc2)CC1=O (stereo not given),39.8%,
COc1ccc(C2C3=C(CCCC3=O)Nc3ccc4ncccc4c32)cc1OC (stereo not given),71.6%,
CC(=O)OCC1OC(n2ncc(=O)n(Cc3ccccc3)c2=O)C(OC(C)=O)C1OC(C)=O (stereo not given),-29.3%,
CCn1c(=S)[nH]c2cc(S(=O)(=O)N3CCCCC3)ccc21,97.9%,
C/C(Cl)=C\COc1cc(C)nc2c(Br)cccc12,inactive: -30.2%,
Cc1ccc(-c2nc(-c3nccc4ccccc34)oc2-c2ccccc2)cc1,,active: 3.55 µM
CCOc1ccc(CNC(=O)c2ccc(Sc3ccc(C)cc3)c(NC(C)=O)c2)cc1OC,-40.3%,
COc1ccccc1C(=O)Nc1ccc(-c2nnc(SCC(=O)O)n2C)cc1,35.4%,
NCCc1nnc(SCc2ccccc2)o1,33.2%,
C=CCNC(=O)c1ccc(Cn2cc(C(F)(F)F)ccc2=O)cc1,49.9%,
COc1ccccc1NC(=O)CC(NCCN(C)C)C(=O)O (stereo not given),-38%,
O=C(Nc1ccc2c(c1)OCO2)N1CCOCC1,44.4%,
CCN1c2ccccc2NC2N=C(OC)C(c3ccccc3)C21 (stereo not given),-65.5%,
O=C(CSc1ncc(-c2ccc(F)cc2)[nH]1)Nc1cccc(O)c1,36.5%,

Compound,"activity change, positive = activation",Potency
COc1ccc(/C=C\c2nc(=O)c3ccccc3o2)cc1,149%,
CCOC(=O)N1CCN(C(=O)c2ccc3c(c2)sc2nc(-c4ccccc4)cn23)CC1,inactive: -32.2%,
COc1ccc(CCNc2nc(-c3sc(C)nc3C)cs2)cc1OC,inactive: -47.9%,
CCn1cc(Cl)c(C(=O)Nc2ccc(OC)c(OC)c2)n1,inactive: -41.6%,
CC(Oc1ccc(Cl)cc1Cl)C(=O)N/N=C1\CCCc2ccccc21 (stereo not given),32.4%,
Cc1cc(OCc2nc(N)nc(N)c2-c2ccc(Cl)c(Cl)c2)ccc1[N+](=O)[O-],inactive: -39.7% [at 9.22 µM],
O=C(NCCN1CCOCC1)c1ccncc1,33.2%,
Cc1ccc(OCC(=O)O/N=C(\N)c2cccnc2)cc1,49.7%,
Cc1ccc2c(CC(=O)NCc3ccc4c(c3)OCO4)coc2c1,37.3%,
CCc1ccc(C(=O)NCc2cnn(C)c2)s1,31.9%,
COc1ccc(NC(=O)c2sc(SC)nc2N)cc1,,active: 12.6 µM
CCOC(=O)C1CCCN(C(=O)C2CC(=O)N(c3ccc(C)cc3)C2)C1 (stereo not given),35.8%,
O=C(N/N=C/C1CC2CCC1C2)c1ccc2c(c1)OCO2 (stereo not given),inactive: -2.94%,
COc1ccccc1NC(=O)c1ncn(-c2ccccc2)n1,,active: 11.2 µM
O=S(=O)(N1CCCCC1)N1CCN(c2ccccc2F)CC1,41%,
COc1ccc(/C=C/C(=O)N2c3ccccc3Sc3ccc(C(F)(F)F)cc32)cc1,38.5% [at 1.84 µM],
O=C(Cc1coc(-c2ccc(F)cc2)n1)NCc1ccccc1,18.7%,
CCc1cccc(C)c1NC(=O)CSc1nnc(-c2ccco2)n1N,36.1%,
N=c1ccn2c(n1)O[C@H]1[C@@H](O)[C@@H](CO)O[C@H]12,inactive: -35.8%,
O=C(N/N=C\c1ccc(Oc2ccccc2)cc1)c1csnn1,,active: 15.8 µM
O=C(OCC(=O)c1c[nH]c2ccccc12)c1ccc(Br)o1,37.9%,
COc1cc(OC)cc(C(=O)NNC(=O)c2ccccn2)c1,-95.6%,

Compound,"activity change, positive = activation",Potency
COC(=O)c1sc2nc3c(cc2c1N)CCCC3,,active: 10 µM
CC(=O)Nc1cccc(NC(=O)CSc2nnnn2Cc2ccccc2)c1,-31.6%,
COC(=O)Cc1ccc(NC(=S)NCC(C)C)cc1,19.3%,
CN(C)c1ccc(/C=C/C(=O)c2ccccc2O)cc1,144%,
CCOc1ccc(NCCC(=O)c2ccc3c(c2)OCO3)cc1,35.3%,
Cc1ccc(C(C(=O)NC2CCCCC2)N(C(=O)c2csnn2)C2CCCC2)o1 (stereo not given),36.1%,
O=C(c1ccc(CSc2nc3ccncc3[nH]2)cc1)N1CCN(c2cccc(Cl)c2)CC1,inactive: -70%,
CN(C)/C=C/C(=O)c1ccc(N2CCN(c3ncc(C(F)(F)F)cc3Cl)CC2)cc1,-55.9%,
O=C(CSc1ncc(-c2ccccc2)nn1)NCc1ccco1,50.6%,
Cc1[nH]c(=O)c(C(=O)/C=C/c2ccccc2F)c2c1CCCC2,inactive: -82.8%,
CC(C)(CO)NCc1ccccc1OCC(=O)Nc1ccccc1,49.9%,
CC(C)CC1NC(=S)N(Cc2ccccc2)C1=O (stereo not given),-72.3%,
CCC(C)NC(=O)c1cc2cc3ccc(OC)cc3nc2s1 (stereo not given),,active: 12.6 µM
O=C(Nc1nc(-c2cccs2)cs1)c1cccc(S(=O)(=O)N2CCCCCC2)c1,inactive: -67.8%,
Cc1cc(C)c(C)c(S(=O)(=O)Nc2ccccc2C(=O)NCCCn2ccnc2)c1C,43.1%,
COc1ccc2c(OC)cc(=O)n(C)c2c1,48.2%,
Cc1cccc(-c2nc(=S)c3c(n2Cc2ccco2)CCCC3)c1,43.1%,
CC(=O)Cc1nsc(NC(=O)c2ccco2)n1,46.6%,
O=C(COc1ccccc1)Nc1cccc(-c2nc3cc4ccccc4cc3[nH]2)c1,,active: 1.78 µM
CN(C)c1ccc(-c2noc(C3CCN(S(=O)(=O)c4cccc(Cl)c4)CC3)n2)cc1,-53.1%,
Cc1cc(=O)[nH]c(N2CCc3ccccc3C2)n1,30.3%,
COc1ccc(S(=O)(=O)Nc2ccc(S(=O)(=O)N3CCOCC3)cc2)cc1C,47.5%,

# — PubChem BioAssay AID1458 (National Center for Advancing Translational Sciences (NCATS), 2008)
